Earlier results as cited in US20220331289A1, “Pharmaceutical Composition Comprising an Artemisinin Derivative for Nasal or Pulmonary Delivery” (Cipla Limited, priority 2014, published 2022).
For at least one compound, name, drawing or mass did not settle the structure.

System: Plasmodium
Settings: treatment and prophylaxis, intranasal, lipid carrier of phospholipid fluid vesicles; rodent model of severe malaria

Compound: C[C@H]1[C@@H](O)O[C@@H]2O[C@@]3(C)CC[C@H]4[C@H](C)CC[C@@H]1[C@@]24OO3 [dihydroartemisinin]
- effect on Plasmodium infection: effective in ameliorating Plasmodium infection
